From the supplement of paper PMC7877785
± gives the uncertainty stated by the source. Many entries were measured with a wide error.

Assay: self-splicing fitness, log relative to wild type (ln ratio); higher = more splicing; Tetrahymena group I intron in knt gene, E. coli kanamycin selection, DiMSum; sequences stand for … in CUCUCU…GGAGGGAAAAGUUAUCAGGCAUGCACCUGGUAGCUAGUCUUUAAACCAAUAGAUUGCAUCGGUUUAAAAGGCAAGACCGUCAAAUUGCGGGAAAGGGGUCAACAGCCGUUCAGUACCAAGUCUCAGGGGAAACUUUGAGAUGGCCUUGCAAAGGGUAUGGUAAUAAGCUGACGGACAUGGUCCUAACCACGCAGCCAAGUCCUAAGUCAACAGAUCUUCUGUUGAUAUGGAUGCAGUUCACAGACUAAAUGUCGGUCGGGGAAGAUGUAUUCUUCUCAUAAGAUAUAGUCGGACCUCUCCUUAAUGGGAGCUAGCGGAUGAAGUGAUGCAACACUGGAGCCGCUGGGAACUAAUUUGUAUGCGAAAGUAUAUUGAUUAGUUUUGGAGUACUCGUGGUCG
In short: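 Six replicate transformations of E. coli BL21(DE3) with a pET-22b(+) library were grown overnight at 37°C or 30°C. The library randomised all eight P1ex-region intron nucleotides, the intron lying in the knt kanamycin-resistance gene, and plates were LB agar with or without 25 μg/mL kanamycin plus 100 μg/mL carbenicillin, 50 μM IPTG and 0.2% rhamnose. Pooled colonies were amplicon-sequenced on an Illumina HiSeq 2500, and fitness is the DiMSum error-weighted combination of wild-type-normalised replicate fold changes, kanamycin versus none.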

Sequence | self-splicing fitness (ln) (37 °C) | self-splicing fitness (ln) (30 °C)
AAGGAGCAAUAUUACGAUCA | -1.95 ± 0.58 | –
CUGGAGCAAUAUUACGACUC | – | -0.525 ± 0.72
UCUGAGCAAUAUUACGCUCU | -1.81 ± 0.67 | –
UGGGAGCAAUAUUACGCCGU | -2.22 ± 0.64 | -4.93 ± 1
UUAUAGCAAUAUUACGAGCC | -2.56 ± 0.62 | –
AGGGAGCAAUAUUACGAUAA | – | -3.72 ± 0.6
CCGCAGCAAUAUUACGCCCA | – | -1.73 ± 0.65
CUGCAGCAAUAUUACGCAGC | -1.55 ± 0.66 | –
GGUGAGCAAUAUUACGCCGG | -0.693 ± 0.82 | –
UCCGAGCAAUAUUACGGAAA | – | -2.87 ± 0.75
UAUAAGCAAUAUUACGUUUG | -1.61 ± 0.14 | -1.84 ± 0.11
AUCGAGCAAUAUUACGACCG | – | -3.85 ± 0.6
AGAGAGCAAUAUUACGGCGC | – | -2.65 ± 1.1
CGUUAGCAAUAUUACGCCAA | -2.01 ± 0.51 | –
UUUUAGCAAUAUUACGAGAU | – | -3.03 ± 1.1
CAGAAGCAAUAUUACGACCC | – | -2.17 ± 0.87
UCAGAGCAAUAUUACGCUAA | – | -3 ± 0.58
UGUUAGCAAUAUUACGGUGC | -2.88 ± 0.32 | -3.76 ± 0.43
CUCGAGCAAUAUUACGCGGG | -3.42 ± 0.6 | –
GGAGAGCAAUAUUACGCAAU | -2.55 ± 0.31 | -3.02 ± 0.2
CGGUAGCAAUAUUACGUCAA | -1.18 ± 0.52 | –
UAUGAGCAAUAUUACGCCAC | -2.04 ± 0.56 | -2.42 ± 0.82

Sequence | self-splicing fitness (ln) (37 °C) | self-splicing fitness (ln) (30 °C)
ACAAAGCAAUAUUACGUAUU | -1.18 ± 0.11 | -1.94 ± 0.086
UCAGAGCAAUAUUACGGCAA | -1.85 ± 0.81 | –
AUAUAGCAAUAUUACGGAGG | -3.21 ± 0.6 | –
AGUUAGCAAUAUUACGGCGC | 0.14 ± 0.33 | -0.53 ± 0.22
AGAGAGCAAUAUUACGAGGC | -2.32 ± 0.78 | –
GCUGAGCAAUAUUACGACCC | – | -2.75 ± 0.62
UGCCAGCAAUAUUACGUCAC | – | -4.08 ± 0.6
AAGGAGCAAUAUUACGAUCC | – | -3.06 ± 0.54
UGGAAGCAAUAUUACGAGAC | -2.9 ± 1.1 | –
UAAGAGCAAUAUUACGUACC | -1.61 ± 0.56 | -3.59 ± 0.61
AGUGAGCAAUAUUACGCUGG | – | -4.44 ± 0.6
GAGGAGCAAUAUUACGGCCA | -1.14 ± 0.58 | -1.78 ± 0.73
GGUAAGCAAUAUUACGGAGG | – | -3.79 ± 0.59
GUUGAGCAAUAUUACGCUGG | -1.67 ± 0.73 | -2.7 ± 0.55
AUGGAGCAAUAUUACGUGCU | – | -3.19 ± 1.2
CUGGAGCAAUAUUACGUGCC | -1.47 ± 1.2 | –
UGGAAGCAAUAUUACGUUCC | -0.749 ± 0.56 | -2.71 ± 0.79
UGUUAGCAAUAUUACGAGAC | -2.12 ± 0.77 | -3.17 ± 0.37
CUUUAGCAAUAUUACGAAUA | -3.2 ± 0.73 | –
CCAUAGCAAUAUUACGCGCC | -2.3 ± 0.77 | -2.89 ± 0.52
CGGGAGCAAUAUUACGUCUC | -3.14 ± 0.74 | –
UUGGAGCAAUAUUACGAGUC | – | -2.81 ± 0.53

Reformatted in CSV form: entries from further up
Sequence,self-splicing fitness (ln) (37 °C),self-splicing fitness (ln) (30 °C)
ACAAAGCAAUAUUACGUAUU,-1.18 ± 0.11,-1.94 ± 0.086
UCAGAGCAAUAUUACGGCAA,-1.85 ± 0.81,–
AUAUAGCAAUAUUACGGAGG,-3.21 ± 0.6,–
AGUUAGCAAUAUUACGGCGC,0.14 ± 0.33,-0.53 ± 0.22
AGAGAGCAAUAUUACGAGGC,-2.32 ± 0.78,–
GCUGAGCAAUAUUACGACCC,–,-2.75 ± 0.62
UGCCAGCAAUAUUACGUCAC,–,-4.08 ± 0.6
AAGGAGCAAUAUUACGAUCC,–,-3.06 ± 0.54
UGGAAGCAAUAUUACGAGAC,-2.9 ± 1.1,–
UAAGAGCAAUAUUACGUACC,-1.61 ± 0.56,-3.59 ± 0.61
AGUGAGCAAUAUUACGCUGG,–,-4.44 ± 0.6
GAGGAGCAAUAUUACGGCCA,-1.14 ± 0.58,-1.78 ± 0.73
GGUAAGCAAUAUUACGGAGG,–,-3.79 ± 0.59
GUUGAGCAAUAUUACGCUGG,-1.67 ± 0.73,-2.7 ± 0.55
AUGGAGCAAUAUUACGUGCU,–,-3.19 ± 1.2

Continued:

Sequence | self-splicing fitness (ln) (37 °C) | self-splicing fitness (ln) (30 °C)
GUCAAGCAAUAUUACGGCCC | -1.34 ± 0.87 | –
GUCGAGCAAUAUUACGCAGC | -0.681 ± 1.4 | -1.65 ± 0.67
CUAUAGCAAUAUUACGCCCC | -1.11 ± 0.9 | -1.55 ± 1.2
UGGGAGCAAUAUUACGCCAC | -1.27 ± 0.74 | –
AUUGAGCAAUAUUACGUGCC | -1.2 ± 0.52 | –
UGUGAGCAAUAUUACGCCUA | -1.09 ± 0.65 | –
CUCAAGCAAUAUUACGCCGC | -2.1 ± 0.79 | -4.16 ± 1
UGAUAGCAAUAUUACGACGC | – | -3.89 ± 1
CCUUAGCAAUAUUACGCAUC | – | -5.3 ± 0.59
UUAUAGCAAUAUUACGUCGU | -2.69 ± 0.61 | –
UCGCAGCAAUAUUACGAAAG | – | -3.99 ± 0.6
UUCGAGCAAUAUUACGUCAC | -0.933 ± 0.65 | –
CGUAAGCAAUAUUACGUCGC | – | -1.29 ± 0.83
GCUAAGCAAUAUUACGACUA | -0.865 ± 0.23 | -1.7 ± 0.19
AGCUAGCAAUAUUACGAAGU | -1.73 ± 0.26 | -4.06 ± 0.32
CUGCAGCAAUAUUACGCCGC | – | -3.8 ± 0.52
UUAGAGCAAUAUUACGUCAC | – | -3.02 ± 0.65
CGAAAGCAAUAUUACGAAGC | -2.02 ± 0.56 | -2.9 ± 0.61
GUCGAGCAAUAUUACGCCCA | – | -1.4 ± 1.2
AGAUAGCAAUAUUACGAAGA | – | -1.93 ± 1.2
